Measured values taken from patent US5278174A, “Sigma binding site agents” (priority 1991, dated 1994).

Protein sequences, listed by entry. Tags and fused reporters are not part of them.
UniProt Q60492, whole entry: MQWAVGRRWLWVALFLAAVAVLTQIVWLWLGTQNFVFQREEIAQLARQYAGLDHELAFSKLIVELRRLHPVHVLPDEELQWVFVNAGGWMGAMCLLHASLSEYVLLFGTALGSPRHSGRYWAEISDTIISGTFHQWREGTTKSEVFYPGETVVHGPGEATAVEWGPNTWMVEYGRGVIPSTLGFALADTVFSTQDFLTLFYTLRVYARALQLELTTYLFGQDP

What was measured:
sigma sites [1] = assay: Sigma receptor binding assay, [3H]DTG; conditions: 5 nM [3H]DTG; guinea pig whole brain; room temperature, 45 minutes; read-out: Receptor Potency Sigma DTG (IC50, nMol)
Procedure: (§1) Two selective sigma receptor ligands, [^3 H](+)-3-[3-hydroxyphenyl]-N-(1 propyl)piperidine [(+)-3-PPP] and [^3 H] Ditolylguanidine (DTG), were used to label sigma sites in brain tissue.
(§2) The tissue preparation and assay conditions employed when using either of these ligands were essentially the same. Frozen whole guinea pig brains (obtained from Pel-Freez, Rogers, Ariz.) were homogenized in 10 volumes of ice-cold 0.32M sucrose. The resulting pellet was resuspended in 10 volumes of ice-cold 50 mM Tris-HCl (pH 7.4), incubated at 37 ° C. for 30 minutes, and centrifuged at 22,000 × g for 20 minutes. The final tissue suspension was made in 50 mM Tris-HCl (pH 7.4) to a concentration of 20 mg original wet weight/mL. 800 μL of tissue suspension was added to tubes containing 5 nM [^3 H] DTG or 4 nM [^3 H] […] The final assay volume was 1 mL. The assay tubes were gently vortexed, and the binding reaction was carried out for 45 minutes at room temperature. The reaction was terminated by rapid filtration over Whatman GF/B glass fiber filters, which were then rinsed 3x with 5 mL of 50 mM Tris-HCl. Filter bound radioactivity was quantified using liquid scintillation spectrometry.

sigma sites [2] = target: T1, sigma sites (Cavia porcellus, UniProt Q60492); assay: Sigma receptor binding assay, [3H](+)-3-PPP; parameters: species or system guinea pig
T1 construct: Frozen whole guinea pig brains; tissue Pel-Freez, Rogers, Ariz; host or cells: whole guinea pig brain membranes
Procedure: as §1, §2

Compound `CN1CCN(C2=Nc3cc(Cl)ccc3Nc3ccccc32)CC1` [Clozapine, reference compound] has an IC50 (sigma sites [1]) of 15 µM and an IC50 (sigma sites [2]) of 34.6 µM.
